Measurements from the supplement of paper PMC10689618.
Structures can show the parent of a compound that is named as a salt. The list shows a part of the results. Many values rest on one well or one pass, so single values are uncertain.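 Labelled rat cortical synaptosomes were engulfed by primary human fetal astrocytes. Engulfment equaled a red/green ratio, corrected for calcein live-cell signal and normalized to the plate median. Compounds were toxic when calcein dropped over 30%, and reduced phagocytosis when below 70% of the median above 5 µM.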

Tests used:
Human fetal astrocytes [1] = assay: loss of total cells relative to no-compound high-control median (toxicity); higher = more toxic (fewer cells); conditions: 24 h
Human fetal astrocytes [2] = assay: synaptosome phagocytosis (pHrodo/calcein intensity ratio) relative to plate median of data wells; higher = more phagocytosis; conditions: 24 h

Row | Structure (SMILES) | loss of total cells (Human fetal astrocytes [1]; 1.39 µM) | loss of total cells (Human fetal astrocytes [1]; 2.78 µM) | loss of total cells (Human fetal astrocytes [1]; 5.56 µM) | loss of total cells (Human fetal astrocytes [1]; 11.11 µM) | loss of total cells (Human fetal astrocytes [1]; 22.22 µM) | synaptosome phagocytosis (Human fetal astrocytes [2]; 1.39 µM) | synaptosome phagocytosis (Human fetal astrocytes [2]; 2.78 µM) | synaptosome phagocytosis (Human fetal astrocytes [2]; 5.56 µM) | synaptosome phagocytosis (Human fetal astrocytes [2]; 11.11 µM) | synaptosome phagocytosis (Human fetal astrocytes [2]; 22.22 µM)
1 | Cc1ccccc1CNc1ncnc2c1ncn2[C@@H]1O[C@H](CO)[C@@H](O)[C@H]1O [Metrifudil] | 7.1% | 22.2% | 16.4% | 20% | 30.8% | 122% | 111% | 115% | 116% | 186%
2 | CCOC(=O)C1=C(C)NC(C)=C(C(=O)OC)C1c1cccc([N+](=O)[O-])c1 (stereo not given) [Nitrendipine] | -10% | -1.4% | -15.5% | -12.4% | -6.5% | 93.2% | 120% | 88.8% | 135% | 104%
3 | COc1ccc2[nH]c(I)c(CCNC(C)=O)c2c1 [2-Iodomelatonin] | 2.9% | 2.6% | 2.5% | 0.4% | -6.4% | 122% | 124% | 89.3% | 92.8% | 98.9%
4 | Cn1c(=O)[nH]c2ncn(C)c2c1=O [1,7-Dimethylxanthine] | -24.7% | -44.4% | -23.9% | -2.2% | -8.8% | 107% | 109% | 102% | 95.2% | 73.9%
5 | CN1CCc2c(cc(O)c(O)c2Cl)C(c2cccc(Cl)c2)C1 (stereo not given) | 7.8% | -0.3% | -24.7% | -14.2% | -3.3% | 71.7% | 91.6% | 90.2% | 80.2% | 101%
6 | COC1(C2=NCCN2)COc2ccccc2O1 (stereo not given) | -3.4% | -7.5% | 7.3% | -12.6% | -6.6% | 81.3% | 102% | 96.3% | 105% | 72.5%
7 | CCCCCCCCCCCCCCCC(=O)NCC(COP(=O)([O-])OCC[N+](C)(C)C)OCC (racemic) [rac-2-Ethoxy-3-hexadecanamido-1-propylphosphocholine] | -15.5% | -17.9% | -4.9% | 13% | 32.8% | 69.8% | 90% | 79.7% | 57.9% | 66.8%
8 | C=C1C(=O)O[C@H]2[C@H]1CC/C(C)=C/CC[C@@]1(C)O[C@@H]21 [Parthenolide] | -21.3% | 5% | 15.5% | 11.4% | 1.9% | 110% | 108% | 112% | 114% | 75.1%
9 | O=C(O)Cc1ccc(O)c(O)c1 [3,4-Dihydroxyphenylacetic acid] | 14.6% | -0.9% | 4.9% | 4% | 4% | 67.7% | 127% | 122% | 125% | 133%
10 | C=C(C)[C@@H]1CC=C(C(=O)O)CC1 [(-)-Perillic acid] | -17.7% | -33.8% | -15.2% | 10.3% | -28% | 118% | 106% | 130% | 112% | 107%
11 | COc1cc2c(cc1OC)-c1c/c(=N\c3c(C)cc(C)cc3C)n(C)c(=O)n1CC2 [Trequinsin hydrochloride] | -7.8% | -21.9% | -9% | -13.4% | -0.8% | 109% | 96.9% | 116% | 124% | 86.9%
12 | CN1[C@@H]2CC[C@H]1CC(OC(=O)c1c[nH]c3ccccc13)C2 (stereo not given in full) [3-Tropanyl-indole-3-carboxylate hydrochloride] | -15.8% | -15.3% | -7.3% | -18% | -10.7% | 115% | 99.1% | 120% | 114% | 121%
13 | CN(C)c1nc(N)c(C(=O)NC(=N)N)nc1Cl [5-(N,N-Dimethyl)amiloride hydrochloride] | -22.8% | -12.9% | -2.3% | -7.6% | -6.4% | 88.7% | 91.6% | 87.6% | 97.8% | 94.2%
14 | CN(C)S(=O)(=O)c1ccc2c(c1)/C(=C/c1cc3c([nH]1)CCCC3)C(=O)N2 | -27% | -9.9% | -1.7% | 22.6% | -2.5% | 64.1% | 61.2% | 45.2% | 63.4% | 80.2%
15 | CCOC(=O)[C@]12CC1/C(=N\O)c1ccccc1O2 (stereo not given in full) | -19.8% | -12% | -1.4% | -13.9% | 7.9% | 102% | 84% | 97.1% | 94.4% | 79.2%
16 | COc1ccc(C(=O)NCc2cccnc2)cc1C(=O)NCc1cccnc1 [Picotamide] | -20.8% | -10.5% | -4.5% | -2.7% | -4.1% | 98.2% | 128% | 120% | 106% | 108%
17 | Cc1cc(NC(=O)Nc2ccc3c(ccn3C)c2)sn1 | -19.4% | -10.8% | -7.8% | 11.2% | 9.4% | 132% | 104% | 96.1% | 104% | 123%
18 | Fc1ccc(CN(C2=NCCN2)c2c(Cl)cccc2Cl)cc1 [IMID-4F hydrochloride] | -3.8% | -30.8% | -4.1% | 1.3% | -6.4% | 102% | 96.4% | 97% | 82.2% | 80.2%
19 | N=C(N)N/N=C/c1c(Cl)cccc1Cl [Guanabenz acetate] | -11.3% | -1.7% | 11.5% | 4.9% | -1.6% | 108% | 104% | 117% | 132% | 93.1%

Structural class: the compounds so far containing an aryl methoxy group (three)
Row | Structure (SMILES) | loss of total cells (Human fetal astrocytes [1]; 1.39 µM) | loss of total cells (Human fetal astrocytes [1]; 2.78 µM) | loss of total cells (Human fetal astrocytes [1]; 5.56 µM) | loss of total cells (Human fetal astrocytes [1]; 11.11 µM) | loss of total cells (Human fetal astrocytes [1]; 22.22 µM) | synaptosome phagocytosis (Human fetal astrocytes [2]; 1.39 µM) | synaptosome phagocytosis (Human fetal astrocytes [2]; 2.78 µM) | synaptosome phagocytosis (Human fetal astrocytes [2]; 5.56 µM) | synaptosome phagocytosis (Human fetal astrocytes [2]; 11.11 µM) | synaptosome phagocytosis (Human fetal astrocytes [2]; 22.22 µM)
3 | COc1ccc2[nH]c(I)c(CCNC(C)=O)c2c1 [2-Iodomelatonin] | 2.9% | 2.6% | 2.5% | 0.4% | -6.4% | 122% | 124% | 89.3% | 92.8% | 98.9%
11 | COc1cc2c(cc1OC)-c1c/c(=N\c3c(C)cc(C)cc3C)n(C)c(=O)n1CC2 [Trequinsin hydrochloride] | -7.8% | -21.9% | -9% | -13.4% | -0.8% | 109% | 96.9% | 116% | 124% | 86.9%
16 | COc1ccc(C(=O)NCc2cccnc2)cc1C(=O)NCc1cccnc1 [Picotamide] | -20.8% | -10.5% | -4.5% | -2.7% | -4.1% | 98.2% | 128% | 120% | 106% | 108%
